The whole screen tested about 410,000 compounds, of which about 18,000 (4.4%) were called active. This list was built around the results that the source calls inconclusive (neither active nor inactive); the mix of calls is not that of the screen. Rule as the data show it: active = activity change below about -60%; inconclusive = no clear call, values can overlap the other calls; inactive = above about -39%. A structure can be active in one record and inactive in another.
Assay: qHTS Assay for inhibitors of the human cytomegalovirus (HCMV)
Conditions: HFF cells, HCMV-luciferase reporter, 72 h; at 57.5 µM; hits give low values
Excerpt: NCGC Assay Overview: Infection with human cytomegalovirus (HCMV) continues to pose significant threats for pregnant women and immunocompromised hosts. HCMV causes serious morbidity and mortality in transplant recipients, and congenital HCMV is the leading infectious cause of mental retardation and deafness in children. In the 1990s, the annual costs associated with the disease burden of congenital CMV were estimated at around $2 billion. A HCMV vaccine is not available yet and HCMV therapies result in intolerable side effects and emergence of drug resistant viruses. […] Towards this goal we have developed and characterized a luciferase HCMV reporter that was initially used in 96 well plates and then optimized to 1536-well plates for utilization in screening of the MLSMR collection, the NGCG diversity collection and the NCGC Pharmaceutical Collection of approved and investigational drugs.
NCGC Assay Protocol Summary:
This is a cell-based assay for HCMV inhibition in HFFs cells. The screening used 2 compound doses and the HCMV-luciferase at MOI of 1 PFU/cell. Cells were treated and infected with HCMV. At 72 h post infection cell lysates were collected and luciferase activity was determined using the Glomax-Multi + Detection System (Promega, Madison, WI). Data were normalized to the controls for basal activity (buffer only) and known HCMV inhibitors Salinmoycin.
1536-well assay protocol for the assay:
(1) Add 3 ul CMV/HFF cell culture. 1000 cells/well in DMEM nirmal media.
(2) Incubate 16 hr at 37C.
(3) Add 23 nl control compound, 10uM of Salinomycin.
(4) Add 23 nl compounds in DMSO solution.
(5) Add 3 ul CMV suspension. Final 1 puf/ul, Virus stock 2000pfu/ul
(6) Incubate 72 hrs at 37C.
(7) Add 4 ul OneGlo Luc Reagent.
(8) Incubate 5 min at room temperature.
% is scaled to controls: 0 for no effect and ±100 for the full control effect.

| Compound | activity change, negative = inhibition |
| --- | --- |
| Cc1nc2scc(-c3cccs3)c2c(=O)n1-n1cccc1 | inconclusive: -45.6% |
| CCOC(=O)C1=C(CSc2nc3ccccc3s2)NC(=O)NC1c1cc(C)ccc1C (centres undefined) | inconclusive: -53.7% |
| CCc1cc(-c2[nH]ncc2-c2ccc3c(c2)OCO3)c(O)cc1O | active: -98.6% |
| Cc1ccc(-n2ncc3c2CC(C)(C)CC3NC(=O)CCN2CCCO2)cc1 (centres undefined) | inactive: 14.5% |
| C(=C\c1ccccc1)/CN1CCN(C(c2nnnn2C2CCCC2)C2CC2)CC1 (centres undefined) | inconclusive: -41.7% |
| CC(C(=O)NC(=O)NC1CCCCC1)N1CCN(C(c2ccccc2)c2ccccc2)CC1 (centres undefined) | inactive: 11.7% |
| Cc1ccc(Cl)cc1NC(=O)C1CCN(C(=O)c2cnn(-c3ccccc3)c2-n2cccc2)CC1 | inactive: -12.4% |
| O=C(CSc1nc2c([nH]c3ccccc32)c(=O)n1-c1ccc(F)cc1)NCc1ccc(F)cc1 | inconclusive: -47.1% |
| O=C(Nc1ccccc1N1CCOCC1)c1cccs1 | inconclusive: -44.4% |
| Cc1cc(C)n(-c2cccc(C(=O)O)c2)n1 | inconclusive: -48.7% |
| COc1ccc(C(=O)OC(C)C(=O)Nc2cc(C(F)(F)F)ccc2Cl)c(OC)c1OC (centres undefined) | inconclusive: -48.4% |
| CC12CN(Cc3ccccc3)CC(C)(CN(Cc3ccccc3)C1)C2=NO | inconclusive: -55.6% |
| C=CCn1c(SCC(=O)NC2CCCCC2)nnc1-c1ccc(OC)cc1 | inconclusive: -59% |
| CCOc1cc(C2Nc3ccccc3C(=O)N2c2ccccc2)ccc1O (centres undefined) | inconclusive: -52.8% |
| CC(=O)N1CCc2c(sc(NC(=O)CCS(=O)(=O)c3ccccc3)c2C#N)C1 | active: -99.8% |
| CCOc1ccc2oc(C(=O)NCc3nc4ccccc4[nH]3)c(C)c2c1 | inactive: 21.4% |
| Cn1cc(C(=O)Nc2ccc(C#N)cc2)c2ccccc2c1=O | active: -67.4% |
| O=c1[nH]c(SCc2ccccc2)nc2c1cnn2-c1ccc(F)cc1 | inconclusive: -49.5% |
| Cc1noc(C)c1C(=O)Nc1nc(-c2ccc([N+](=O)[O-])cc2)cs1 | active: -61.7% |
| CC1CN(S(=O)(=O)c2cccc(C(=O)Nc3ccccc3N3CCOCC3)c2)CC(C)O1 (centres undefined) | inconclusive: -42.8% |
| N#Cc1sc2nc(N3CCCCC3)c3c(c2c1N)CCCC3 | inconclusive: -42.2% |
| O=C(O)CCc1ccc(-c2ccc(Br)cc2)n1-c1cccc(O)c1 | inconclusive: -53.5% |

Fetched by structure from above (two):

| Compound | activity change, negative = inhibition |
| --- | --- |
| Cc1ccc(-n2ncc3c2CC(C)(C)CC3NC(=O)CCN2CCCO2)cc1 (centres undefined) | inactive: 14.5% |
| CC(C(=O)NC(=O)NC1CCCCC1)N1CCN(C(c2ccccc2)c2ccccc2)CC1 (centres undefined) | inactive: 11.7% |

(listing goes on)

| Compound | activity change, negative = inhibition |
| --- | --- |
| S=c1[nH]nc(-c2ccncc2)n1/N=C/C(Cl)=C\c1ccccc1 | active: -87.4% |
| COc1ccc(Cl)cc1NC(=O)CN1CCC(NC(=O)C2CC2)CC1 | active: -76.5% |
| CN(C(=O)C1CCN(c2ncnc3c2nc2n3CCCCC2)CC1)c1ccccc1F | inconclusive: -46% |
| Cc1nc(-c2coc3cc(C)c(N=O)c(O)c3/c2=N\N)cs1 | inactive: -0.824% |
| COc1ccc(Nc2c(-c3ccc(F)cc3)nc3nc(C)cc(C)n23)cc1 | active: -66.8% |
| O=C1N=C(N2CCCCC2)S/C1=C\c1ccncc1 | inconclusive: -45.2% |
| Cc1cc([N+](=O)[O-])nn1CC(=O)c1ccccc1 | inactive: -14.4% |
| Cc1cccn2c(=O)nc(SCC(=O)Nc3cccc4ccccc34)nc12 | inconclusive: -40.2% |
| Cc1ccc(NC(=O)C2CCN(S(=O)(=O)c3ccc4c(c3)CCCN4C(=O)C3CCC3)CC2)cc1 | inactive: -4.02% |
| S=C(NCc1ccncc1)Nc1ccc(Cl)c(Cl)c1 | inconclusive: -58.3% |
| Cc1ccc(NS(=O)(=O)c2ccc(C(=O)N3CCN(c4ncccn4)CC3)cc2)cc1 | active: -77.2% |
| CC(C)(C)[C@H]1C=C(C(=O)N2CCN(Cc3ccc4c(c3)OCO4)CC2)O[C@@H](OCCCCO)C1 | inconclusive: -50.9% |
| Cc1ccc(C(C)C)c(OCC(=O)NCC(c2cccs2)N2CCOCC2)c1 (centres undefined) | inconclusive: -46% |
| CC(=O)N(C)C(c1ccc(N(C)C)cc1)c1nnnn1-c1c(C)cccc1C (centres undefined) | inconclusive: -53.3% |
| COc1ccc(N2CCc3c(C)nc4c(OC)cc(OC)cc4c32)cc1 | active: -108% |
| O=C1NCN(c2ccccc2)C12CCN(C(c1nnnn1-c1ccc3c(c1)OCCO3)C1CC1)CC2 (centres undefined) | inconclusive: -42.6% |
| O=C(NNC(=S)NC(=O)c1ccc(F)cc1)c1cccnc1 | inactive: -9.77% |
| Cc1cc(C)c(NC(=O)CN2C(=O)CC(C)S(=O)(=O)c3ccccc32)c(C)c1 (centres undefined) | inconclusive: -41.7% |
| O=P1(c2ccccc2)Nc2ccccc2N1c1ccccc1 (centres undefined) | active: -64% |
| CC(C)OCCCNC(=S)NNC(=O)C(c1ccccc1)c1ccccc1 | inactive: 4.35% |
| O=C(Cn1ccc2cc(S(=O)(=O)N3CCCCCC3)ccc21)NCCc1ccc(Cl)cc1 | inactive: -3.97% |
| CCC(C)NCCCOc1c(C)cc(C)cc1Br (centres undefined) | inconclusive: -40.4% |

Source: PubChem BioAssay AID1259415 (National Center for Advancing Translational Sciences (NCATS), 2018)
